Test [1] has as its target T1, TAMRA labelled peptide ….
T1 sequence (peptide, amine labeled with 5- and 6-Carboxytetramethylrhodamine (TAMRA)): GDMAAKRVKLD
Nature of the test: fluorescence polarisation; direct: importin α titrated into 25 nM TAMRA peptide, 50 mM Tris pH 7.5, 100 mM NaCl, 1 mM DTT, 25°C; both purified. On the technique in general: Polarisation of emitted light reports the rotation of a fluorescent probe.

Chains of the proteins cited; added tags and fusions are not shown.
UniProt P52294: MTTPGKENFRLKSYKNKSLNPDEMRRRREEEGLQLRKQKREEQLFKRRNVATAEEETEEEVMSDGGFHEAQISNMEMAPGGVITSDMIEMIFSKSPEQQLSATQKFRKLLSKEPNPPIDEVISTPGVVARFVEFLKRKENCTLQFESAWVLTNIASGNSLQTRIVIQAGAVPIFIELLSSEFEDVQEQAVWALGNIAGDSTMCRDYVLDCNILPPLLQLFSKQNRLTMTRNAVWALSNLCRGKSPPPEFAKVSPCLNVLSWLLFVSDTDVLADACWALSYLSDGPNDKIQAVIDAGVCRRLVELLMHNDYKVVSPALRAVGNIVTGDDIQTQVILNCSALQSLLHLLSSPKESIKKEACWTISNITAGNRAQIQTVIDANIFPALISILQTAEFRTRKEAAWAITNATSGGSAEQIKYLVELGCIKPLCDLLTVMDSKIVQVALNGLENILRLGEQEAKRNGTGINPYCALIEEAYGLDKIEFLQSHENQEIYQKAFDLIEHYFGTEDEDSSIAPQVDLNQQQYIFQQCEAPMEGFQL

Test [2] addresses T1, TAMRA labelled peptide …. Put plainly: fluorescence polarisation; competition, dark (value read after 5 minutes in absence of light); 25 nM TAMRA peptide …, 50 mM Tris pH 7.5, 100 mM NaCl, 1 mM DTT, 25°C; Kd from IC50; both purified.
Test [3] concerns the target T1, TAMRA labelled peptide …. Nature of the test: fluorescence polarisation; competition, under blue light (455 nm, 6 mW/cm^2; value read after 2 minutes of illumination); 25 nM TAMRA peptide …, 50 mM Tris pH 7.5, 100 mM NaCl, 1 mM DTT, 25°C; Kd from IC50; both purified.
The target in test [4] is human importin α5 (human) (UniProt P52294). Put plainly: fluorescence polarisation; competition, dark (value read after 5 minutes in absence of light); 25 nM TAMRA peptide …, 50 mM Tris pH 7.5, 100 mM NaCl, 1 mM DTT, 25°C; Kd from IC50; both purified.
For test [5], the target named is human importin α7 (human) (UniProt O60684). The test is described as above.
Test [6] concerns the target human importin α5 (human) (UniProt P52294). Put plainly: fluorescence polarisation; competition, under blue light (455 nm, 6 mW/cm^2; value read after 2 minutes of illumination); 25 nM TAMRA peptide …, 50 mM Tris pH 7.5, 100 mM NaCl, 1 mM DTT, 25°C; Kd from IC50; both purified.
Test [7] has as its target human importin α7 (human) (UniProt O60684). Described as above.

These are yes or no findings as the source states them, for the method shown. Some results given as binding are weak or reduced against the parent protein; the word gives no strength.

For the substance “human importin α5 (from UniProt P52294 1-538)”, the binding entry in test [1], in test [2] and in test [3] was “binds” throughout.

As to “human importin α7 (from UniProt O60684 1-536)”, the binding entry in test [1], in test [2] and in test [3] was “binds” in each case.

“wild type AsLOV2 (from UniProt O49003 404-546) (domain or fragment)”: the binding result in test [4], in test [5], in test [6] and in test [7] was “no binding” each time.
